# ± gives the standard deviation. Only a part is listed here, and it is no random draw. Many of these values have a large error.
# Test system: MIWI (PIWIL1) piRISC loaded with L1MC piRNA (30 nt)
# Assay: pre-steady-state target cleavage rate (min^-1); MIWI and MILI are mouse PIWI proteins and EfPiwi is from a freshwater sponge; tags in brackets are library labels; higher = faster piRNA-guided slicing of the target
# Settings: guide: L1MC piRNA 5'p-UAACUAAAUACUAUGCAAGCUGUAGGUCCU; auxiliary factor: none (no GTSF1)
# How it was run: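 In HEPES–potassium acetate buffer at 33 °C, […] transcribed, DNA-blocked target RNA library was mixed with 1 nM active affinity-purified piRISC carrying one synthetic guide, with or without 500 nM GTSF1 partner protein, for 0–8 or 0–960 min. Uncleaved targets were sequenced and normalised to depth and to weakly complementary targets; three trials were pooled and k3 was capped at 0.0001 min^-1. The pre-steady-state cleavage rate followed from a burst-and-steady-state fit.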
# 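Further: 1 nM active piRISC with 0.1 nM target library at 33 °C single turnover.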
row,Sequence,pre-steady-state target cleavage rate
1,AGGACCUACAGCUUCGUUAGUAUUUACAAA,0.000612 ± 0.0097
2,UCCACCUACAGCUUGCAUAGUAAUUACAAA,0.00086 ± 0.0079
3,UCCACCUACAGCUUGCAUAUGUAUUUAGUUA,0.000726 ± 0.0086
4,UCCUGGAUGUCCUUCGCAUAGUAUUUAGUUA,0.00228 ± 0.0041
5,UCGACCUACAGCUUGCAUUGUAUUUUCAAA,0.00139 ± 0.0059
6,UCGACCUACAGCUUGCAUAGUUUUAGUUA,0.00121 ± 0.0056
7,UCCUGGAUGUCGAUGCAUAGUACUUAGUUA,0.00219 ± 0.0035
8,UCGACCUAGUCCUUGCAUAGUAUUUUCAAA,0.00129 ± 0.0029
9,UGGACCUACAGCUUGCAUAGUAUUAUGUAA,0.00211 ± 0.0033
10,UCCACCUACAGCUUGCAUAGUAAAUUCAAA,0.000298 ± 0.01
11,UGGACCUACAGCUUGCAUAGUAAAAACAAA,0.000315 ± 0.0096
12,UCCACCUACAGCUUGCAAAGUAUUUUCAAA,0.00198 ± 0.0039
13,UCCUGGAACAGGAAGCAUAGUAUUUACAAA,0.000498 ± 0.013
14,UGGACCUACAGCUACCAUAGUAUUUAGAAA,0.00029 ± 0.0084
15,UGGACCUACAGCUUCGAUAGUAUUUAGUAA,0.00115 ± 0.0035
16,UCGACCUACAGCUUCCAUAGUAUUUACAAA,0.000697 ± 0.0077
17,AGGACCUACAGCUUGCAUAGUUUUAGUUA,0.00156 ± 0.0061
18,UCCACCUACAGCUAGCAUAGUAUUUAGAAA,0.00151 ± 0.0043
19,UGGACCUACACGAUGCAUAGUAUUUACAAA,0.00099 ± 0.0056
20,UCCUGGAUGUGCAAGCAUAGUAUUUAGUUA,0.00255 ± 0.0035

# Quoted at random: three records from the list.
row,Sequence,pre-steady-state target cleavage rate
12,UCCACCUACAGCUUGCAAAGUAUUUUCAAA,0.00198 ± 0.0039
15,UGGACCUACAGCUUCGAUAGUAUUUAGUAA,0.00115 ± 0.0035
17,AGGACCUACAGCUUGCAUAGUUUUAGUUA,0.00156 ± 0.0061

# Next results follow:

row,Sequence,pre-steady-state target cleavage rate
1,AGGACCUACAGCUUGCAUACAUAAAUCAAA [g12:g30:cont:t1A],0.000259 ± 0.015
2,AGGACCUACAGCUUCCAUAGUAAUUAGUUA,0.00181 ± 0.0039
3,UCGACCUACAGCUUGCAUUCAAUUUAGAAA,0.000649 ± 0.0093
4,UCGACCUACAGCUACCAUAGUAUUUAGUAA,0.00097 ± 0.0056
5,UCCACCUACAGCUUGCCAUAGUAUUUAGUUA,0.00156 ± 0.0048
6,UCGACCUACAGCUUGCAAUCUAUUUAGAAA,0.000361 ± 0.0087
7,UGGACCUACAGCUUGCAUAGUUAAAUCAAA [g10:g29:cont:t1A],0.00047 ± 0.0089
8,UCCUGGAUGUCGAACGUAACAAUUUAGUUA,0.000129 ± 0.035
9,UCGACCUACAGCUUGGUAAGUAUUUAGUAA,0.000695 ± 0.0086
10,UGGACCUACAGCUUGCAUUCUAUUUAGAAA,0.00123 ± 0.0039
11,UCGACCUACAGCUUGCUAUGUAUUUACAAA,0.000612 ± 0.0077
12,UCCUGCUACAGCUUGCAUAGUAAAAAGUAA,0.00111 ± 0.0045
13,UCGACCUACAGCUUGCAUUCUAUUUUCAAA,0.000436 ± 0.015
14,AGGACCUACAGCUUGCUAUGUAUUUUCAAA,0.000588 ± 0.012
15,AGGACCUACAGCUUGCAUAGUAUUAUCAAA,0.00235 ± 0.0041
16,UCGACCUACAGCUUGCAUAGUAUAAACAAA,0.00113 ± 0.0049
17,UCGACCUACAGCUUCGAUAGUAUUUAGAAA,0.000873 ± 0.0072
18,UCCUGGAUGUCGAAGCAUAGUAUUUAGUCA,0.00113 ± 0.0038
19,UCCACCUACAGCUUGCAUAGUAUAUUCAAA,0.000723 ± 0.0096
20,AGGACCUACAGCUAGCAUAGUAUUUUCAAA,0.0016 ± 0.0044
